For one substance, binding results are on record in PMC8622166.

The chains behind the UniProt entries cited, without tags or fusion partners.
UniProt Q9H4E5: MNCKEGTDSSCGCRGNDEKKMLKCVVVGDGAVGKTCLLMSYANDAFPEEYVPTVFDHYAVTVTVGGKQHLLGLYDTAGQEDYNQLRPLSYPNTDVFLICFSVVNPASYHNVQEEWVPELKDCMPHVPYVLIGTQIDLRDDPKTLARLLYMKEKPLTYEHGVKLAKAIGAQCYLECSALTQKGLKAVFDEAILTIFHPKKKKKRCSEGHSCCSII
UniProt P52565: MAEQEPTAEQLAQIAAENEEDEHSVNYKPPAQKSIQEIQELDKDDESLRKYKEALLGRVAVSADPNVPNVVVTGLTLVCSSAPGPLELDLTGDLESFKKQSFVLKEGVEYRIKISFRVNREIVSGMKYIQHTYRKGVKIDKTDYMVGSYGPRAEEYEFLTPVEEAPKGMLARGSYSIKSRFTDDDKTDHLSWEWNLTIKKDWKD

This test concerns the target TCL (UniProt Q9H4E5). Kind of test: stopped-flow fluorimetry; association (kobs) at one concentration: 2 µM GDI mixed with 0.2 µM mdGDP-bound RHO GTPase; 25 °C, 30 mM Tris/HCl pH 7.5, 10 mM K2HPO4/KH2PO4 pH 7.5, 5 mM MgCl2, 3 mM DTT; both purified.

Results are given in words; binding and its absence hold for the method and conditions named.

As to “GDI1 (RHOGDI1), wild type (from UniProt P52565 1-204)”, the binding entry is recorded as “no binding (tested: 2 µM GDI, 0.2 µM mdGDP-bound GTPase)”.
